# Binding screen against folded nucleic acids

Targets, with sequences 5′ to 3′:
TPP: TPP riboswitch RNA three-way junction, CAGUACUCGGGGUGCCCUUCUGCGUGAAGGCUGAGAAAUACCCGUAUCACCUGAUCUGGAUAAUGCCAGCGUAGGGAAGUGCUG. About 24,000 compounds screened, about 160 hits.
PreQ1: PreQ1 riboswitch RNA pseudoknot, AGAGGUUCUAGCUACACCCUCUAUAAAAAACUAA. From B. subtilis. About 24,000 compounds screened, about 170 hits.
SAM-II: SAM-II riboswitch RNA pseudoknot, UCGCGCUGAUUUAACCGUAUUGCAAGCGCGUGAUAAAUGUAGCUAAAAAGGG. About 21,000 compounds screened, about 200 hits.

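Compounds were printed on reactive glass slides in duplicate spots, a dye-labelled oligonucleotide was laid over them, and the fluorescence left after washing was read. For the PreQ1, TPP and SAM-II riboswitches the laboratory earlier reported (doi:10.1038/s41467-019-09493-3) 1 µM RNA, 2 h, and a rule that included a mean Z-score above 3 (spot signal-to-noise against the whole library), a score well above that on a control array, and duplicate spots agreeing (coefficient of variation under 100). The data file gives only the calls; its cut-offs may differ, and compounds hitting several targets are kept. A missing hit is not proof of no binding, and a hit is not a measured affinity.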
“hit” means called a hit, “no hit” means screened and not called a hit.
Compounds were drawn at random from those tested, without regard to their results.
A target missing from an entry has no call listed here.

Nc1ccnc(C(=O)N2CCO[C@@H]3CCCC[C@H]32)c1 was scored TPP: no hit; PreQ1: no hit; SAM-II: no hit. With OC1(CNCc2nnc3ccccn23)CCCNC1 (configuration not stated) the screen gave TPP: no hit; PreQ1: no hit; SAM-II: no hit. For Cn1ccnc1C(N)c1ccccc1 (configuration not stated) the calls were TPP: no hit; PreQ1: no hit; SAM-II: no hit. With CC(C)OCCCNCc1ccc2c(c1)n(C)c(=O)n2C the screen gave TPP: no hit; PreQ1: no hit. Calls for Cc1ccc(C)c2c(C)c(C(=O)N(CC=Cc3ccccc3)CCO)[nH]c12 are TPP: no hit; PreQ1: no hit; SAM-II: no hit. Calls for C[C@@H]1CN(Cc2cccnc2N)CC[C@@]1(O)C1CCOCC1 are TPP: no hit; PreQ1: no hit; SAM-II: no hit. For Cc1ccc(NCc2nnc(-c3ccccc3)o2)cc1F the calls were TPP: no hit; PreQ1: no hit; SAM-II: no hit.

With C=CCC1(CO)CCCN(C(=O)CN2CCCC2=O)C1 (configuration not stated) the screen gave TPP: no hit; PreQ1: no hit; SAM-II: no hit. With Cc1ccc(CNc2nc3ccc(Cl)cc3n3cnnc23)cc1 the screen gave TPP: no hit; PreQ1: no hit. Calls for COC(=O)c1sccc1S(=O)(=O)N1CCNCC1 are TPP: no hit; PreQ1: no hit; SAM-II: no hit. For Nc1nc2c(c(N[C@H]3Cc4ccccc4[C@@H]3N)n1)CCCC2 the calls were TPP: no hit; PreQ1: no hit; SAM-II: no hit. With Cc1ccc(Oc2ccc(CN3CCNC(C(=O)O)C3)cc2)cc1C (configuration not stated) the screen gave TPP: no hit; PreQ1: no hit; SAM-II: no hit. Cc1onc(C(=O)N2CCCC(c3n[nH]c(=O)n3-c3ccccc3)C2)c1CO (configuration not stated) was scored TPP: no hit; PreQ1: no hit; SAM-II: no hit. Calls for CCC(C)(C)c1ccc(CC(C)CN2C[C@@H](C)O[C@@H](C)C2)cc1 (some centres not stated) are TPP: no hit; PreQ1: no hit; SAM-II: no hit.

For Cc1ccc(-c2nc3nc(C)cc(N4CCN(CCO)CC4)n3n2)cc1 the calls were TPP: no hit; PreQ1: no hit. For CCc1ccccc1NC(=O)Cn1nnc(C(=O)Nc2ccc(Cl)cc2)c1N the calls were TPP: no hit; PreQ1: no hit. Cc1cc(-c2ccc(Cl)cc2)n2nc(N)nc2n1 was scored TPP: no hit; PreQ1: no hit; SAM-II: no hit. CN(C)C(=N)N=C(N)N was scored TPP: no hit; PreQ1: no hit; SAM-II: no hit. With Nc1nnc(-c2ccccc2SCc2ccc(F)cc2)s1 the screen gave TPP: no hit; PreQ1: no hit; SAM-II: no hit. Cc1cc(=O)oc2cc(OCC(=O)NCCO)ccc12 was scored TPP: no hit; PreQ1: no hit; SAM-II: no hit. Calls for O=C1CCC2(CCNCC2)CN1CC1(c2cccc(F)c2)CCOCC1 are TPP: no hit; PreQ1: no hit; SAM-II: no hit.

Calls for O=C1CCC2(CCN(CC=Cc3ccc(F)cc3)CC2)CN1CCCO are TPP: no hit; PreQ1: no hit; SAM-II: no hit. Calls for CCCOc1ccc(Oc2nc(NCC(C)C)nc(N(C)C)n2)nn1 are TPP: no hit; PreQ1: no hit. Calls for O=C1C2C3c4ccccc4C(c4ccccc43)C2C(=O)N1CCCO (configuration not stated) are TPP: no hit; PreQ1: no hit; SAM-II: no hit. With CCCN1CCO[C@@H]2c3cc(O)ccc3OC[C@@H]21 the screen gave TPP: no hit; PreQ1: no hit; SAM-II: no hit. Calls for CCN(CC)C(=O)c1cn(C2CCN(C(=O)C3(N)CCCC3)CC2)nn1 are TPP: no hit; PreQ1: no hit; SAM-II: no hit. For CCc1n(CC(O)COc2ccccc2OC)c2ccccc2[n+]1CC (configuration not stated) the calls were TPP: no hit; PreQ1: no hit; SAM-II: no hit. CCn1cncc1CNCCC(=O)Nc1nccs1 was scored TPP: no hit; PreQ1: no hit; SAM-II: no hit.

For Cc1nn2c(NCc3cccnc3)cc(C(C)(C)C)nc2c1-c1ccc(F)cc1 the calls were TPP: no hit; PreQ1: no hit. For CC(=O)N(CCc1ccc(F)cc1)CC1=CCCN(CCO)C1 the calls were TPP: no hit; PreQ1: no hit; SAM-II: no hit. With CCc1c(C)nc2nncn2c1NCc1ccc(OC)cc1 the screen gave TPP: no hit; PreQ1: no hit. CCC(O)c1nc2ccccc2n1CCCOc1cccc(C)c1 (configuration not stated) was scored TPP: no hit; PreQ1: no hit. Calls for CC(O)c1cccc(NC(=O)c2cnn3c2N[C@@H](c2ccco2)C[C@H]3C(F)(F)F)c1 (some centres not stated) are TPP: no hit; PreQ1: no hit; SAM-II: no hit. With COc1ccccc1Nc1nc(-c2cc3ccccc3o2)cs1 the screen gave TPP: no hit; PreQ1: no hit; SAM-II: no hit. Calls for COc1ccc(-c2cn3c4c(=O)n(C)c(=O)n(C)c4nc3n2CCCCO)cc1 are TPP: no hit; PreQ1: no hit; SAM-II: no hit.

With O=C(O)c1cc(NCc2cccs2)ccc1N1CCOCC1 the screen gave TPP: no hit; PreQ1: no hit; SAM-II: no hit. CCCCn1cnc2cc(NCc3cccc(OC)c3)ccc21 was scored TPP: no hit; PreQ1: no hit; SAM-II: no hit. Calls for CC(c1ccc(-c2nc3ccccc3n2CCO)cc1)N1CCOCC1 (configuration not stated) are TPP: no hit; PreQ1: no hit; SAM-II: no hit.

From ROBIN, a set of small-molecule microarray screens (doi:10.1002/anie.202211358).